The target of the assay is human glucagon receptor (GCGR), C-terminal Flag-tagged (human) (UniProt P47871). As to the kind of experiment: affinity purification with mass spectrometry; anti-Flag M2 affinity gel on lysates of CHO cells transfected with GCGR-Flag, with or without glucagon (10 nM, 5 minutes); lysis buffer 10% glycerol, 50 mM HEPES pH 7.4, 150 mM NaCl, 2 mM EDTA, 0.25% DDM; elution with ammonium hydroxide pH 11.0, trypsin, LC-MS/MS; three repeats; control cells without GCGR-Flag.

Amino acid sequences for entries named in this document (tags omitted). Residues count along the entry.
UniProt P47871, residues 26-477: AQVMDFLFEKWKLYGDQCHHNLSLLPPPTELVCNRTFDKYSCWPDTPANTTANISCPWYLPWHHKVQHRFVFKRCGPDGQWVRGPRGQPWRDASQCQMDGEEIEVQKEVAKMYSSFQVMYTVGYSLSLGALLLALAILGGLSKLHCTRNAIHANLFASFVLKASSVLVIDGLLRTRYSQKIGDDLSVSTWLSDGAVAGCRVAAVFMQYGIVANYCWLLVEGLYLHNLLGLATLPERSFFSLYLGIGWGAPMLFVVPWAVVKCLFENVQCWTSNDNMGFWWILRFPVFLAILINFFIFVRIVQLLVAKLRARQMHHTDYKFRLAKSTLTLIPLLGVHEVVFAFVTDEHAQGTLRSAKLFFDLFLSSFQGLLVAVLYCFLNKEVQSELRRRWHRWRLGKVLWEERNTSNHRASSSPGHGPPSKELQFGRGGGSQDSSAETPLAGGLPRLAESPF

No constants are given. Whether binding was seen depends on the method and setting. In cells and extracts the contact can be indirect. Here binding means that the protein was enriched with, or labelled near, the bait; the list need not be complete.

B1: SPTLC2 (protein, UniProt O54694 1-560)
chain: MRPEPGGCCCRRPLRANGCVKNGEVRNGYVRSSTATAAAAGQIHHVTENGGLYKRPFNEVFEETPMLVAVLTYVGYGVLTLFGYLRDFLRHWRIEKCHHATEREEQKDFVSLYQDFENFYTRNLYMRIRDNWNRPICSVPGARVDIMERQSHDYNWSFKYTGNIIKGVINMGSYNYLGFARNTGSCQEAAAEVLKEYGAGVCSTRQEIGNLDKHEELEKLVARFLGVEAAMTYGMGFATNSMNIPALVGKGCLILSDELNHASLVLGARLSGATIRIFKHNNMQSLEKLLKDAIVYGQPRTRRPWKKILILVEGIYSMEGSIVRLPEVIALKKKYKAYLYLDEAHSIGALGPSGRGVVDYFGLDPEDVDVMMGTFTKSFGASGGYIGGKKALIDYLRTHSHSAVYATSMSPPVMEQIITSMKCIMGQDGTSLGKECVQQLAENTKYFRRRLKEMGFIIYGNEDSPVVPLMLYMPAKIGAFGREMLKRNVGVVVVGFPATPIIESRARFCLSAAHTKEILDTALKEIDEVGDLLQLKYSRRRLVPLLDRPFDETTYEETED
As to B1, the binding result is reported as “binds”.

B2: ADSS (protein, UniProt V5QSN9 1-456)
chain: MSISESNPAAASLPNGDCGRPRAPPGGNRVTVVLGAQWGDEGKGKVVDLLAQDADIVCRCQGGNNAGHTVVVDSVEYDFHLLPSGIINPNVTAFIGNGVVIHLPGLFEEAEKNVQKGKGLDGWEKRLIISDRAHIVFDFHQAADGIQEQQRQEQAGKNLGTTKKGIGPVYSSKAARSGLRMCDLVSDFDGFSERFKVLANQYKSIYPTLEIDIEGELQKLKGYMERIKPMVRDGVYFLYEALHGPPKKILVEGANAALLDIDFGTYPFVTSSNCTVGGVCTGLGMPPQNVGEVYGVVKAYTTRVGIGAFPTEQDNEIGELLQTRGREFGVTTGRKRRCGWLDLVLLKYAHMINGFTALALTKLDILDMFTEIKVGVAYKLDGEIIPHFPANQEVLNKVEVQYKTLPGWNTDISNARTFKELPVNAQNYVRFIEDELQIPVKWIGVGKSRESMIQLF
With B2, the binding result is “binds”.
